This note sets out measurements from publication PMC7900953, “Location of a single histidine within peptide carriers increases mRNA delivery” (The Journal of Gene Medicine, 2020).

For the series, the system named is mRNA. As to the kind of experiment: Heparin displacement assays (dye intercalation and gel electrophoresis). Type of series: binding. Particulars: HK:mRNA 4:1 w/w; heparin 37°C 30 min; Sybr Gold fluorescence and gel.

Take “R = KHHHKHHHKHHHHKHHHK [H3K(+H)4b, four‐branched analogue of H3K4b with one extra histidine in the second ‐HHHK‐ motif]”: the “Stability of polyplex / release of mRNA on exposure to heparin” value was “binds more tightly to the mRNA”. As for “R = KHHHKHHHKHHHKHHHK [H3K4b, four‐branched histidine‐lysine peptide with four ‐HHHK‐ motifs in each branch]”, the entry is “released by the H3K4b more rapidly than by the H3K(+H)4b peptide”.
